Measured values from patent publication US10000641B2, “Method and composition for preventing corrosion of metal surfaces” (Ecolab USA Inc., priority 2010, dated 2018).

Assay: cyclic sweep (cyclic polarisation) test after the LPR Bubble test
Details: 10 ppm test chemical, sweep maximum ~250 mV

## Na Oleyl amphoacetate
Brine A
  Cyclic sweep: potential at which current density rose above 1 mA/cm2: 81 mV
Brine B
  Cyclic sweep: potential at which current density rose above 1 mA/cm2: 250 mV
